# Experiment: soluble on expression in E. coli; label from the status in PepcDB or PDB records
row,Sequence,soluble on expression in E. coli
1,MGHHHHHHSHGAIFLEGVTVKGVTQVTTQPKLGEVQQKCHQFCGWEGSGFPGAQPVSMDKQNIKLLDLKPYKVSWKADGTRYMMLIDGTNEVFMIDRDNSVFHVSNLEFPFRKDLRMHLSNTLLDGEMIIDRVNGQAVPRYLIYDIIKFNSQPVGDCDFNVRLQCIEREIISPRHEKMKTGLIDKTQEPFSVRNKPFFDICTSRKLLEGNFAKEVSHEMDGLIFQPTGKYKPGRCDDILKWKPPSLNSVDFRLKITRMGGEGLLPQNVGLLYVGGYERPFAQIKVTKELKQYDNKIIECKFENNSWVFMRQRTDKSFPNAYNTAMAVCNSISNPVTKEMLFEFIDRCTA,not soluble
2,MGHHHHHHSHMGKVFMTRTPKAIATKAKIDKWDLIKLKSFCIAKETSIQVNRQPTEREKIFAIYPSDKGQIQNLVYSCRSRNYKELKQIYQKKPINPIKKWAKRQARWLTSVITAPWEAKAGGSPELRSSRLKIQKLLNYSTKNIKISLAWWWAPIISATWEAEAGESLEPRRRRL,not soluble
3,MGHHHHHHSHPGEKSRYETSLNLTTKRFLELLSHSADGVVDLNWAAEVLKVQKRRIYDITNVLEGIQLIAKKSKNHIQWLGSHTTVGVGGRLEGLTQDLRQLQESEQQLDHLMNICTTQLRLLSEDTDSQRLAYVTCQDLRSIADPAEQMVMVIKAPPETQLQAVDSSENFQISLKSKQGPIDVFLCPEETVG,not soluble
4,MGHHHHHHSHTLVEREVDITLPTDFGTFKVYGYTNEVDGKEHVAFVMGDVPFGEEPVLVRVHSECLTGDVFGSHRCDCGPQLHAALNQIAAEGRGVLLYLRQEGRGIGLINKLKAYKLQEQGYDTVEANEALGFLPDLRNYGIGAQILRDLGVRNMKLLTNNPRKIAGLEGYGLSISERVPL,soluble
5,MGKKQNKKKVEEVLEEEEEEYVVEKVLDRRVVKGKVEYLLKWKGFSDEDNTWEPEENLDCPDLIAEFLQSQKTAHETDKSEGGKRKADSDSEDKGEESKPKKKKEESEKPRGFARGLEPERIIGATDSSGELMFLMKWKNSDEADLVPAKEANVKCPQVVISFYEERLTWHSYPSEDDDKKDDKN,soluble
6,MGSSHHHHHHSSGRENLYFQGHMSQYKTGLLLIHPAVTTTPELVENTKAQAASKKVKFVDQFLINKLNDGSITLENAKYETVHYLTPEAQTDIKFPKKLISVLADSLKPNGSLIGLSDIYKVDALINGFEIINEPDYCWIKMDSSKLNQTVSIPLKKKKTNNTKLQSGSKLPTFKKASSSTSNLPSFKKADHSRQPIVKETDSFKPPSFKMTTEPKVYRVVDDLIEDSDDDDFSSDSSKAQYFDQVDTSDDSIEEEELIDEDGSGKSMITMITCGKSKTKKKKACKDCTCGMKEQEENEINDIRSQQDKVVKFTEDELTEIDFTIDGKKVGGCGSCSLGDAFRCSGCPYLGLPAFKPGQPINLDSISDDL,soluble
7,MITGIQITKAANDDLLNSFWLLDSEKGEARCIVAKSGFAEDEVVAVSKLGEIEYREIPMEVKPEVRVEGGQHLNVNVLRRETLEDAVKHPEKYPQLTIRVSGYAVRFNSLTPEQQRDVIARTFTESL,not soluble
8,MKKIVLLSLFALCLPLLVMAQSNNDDLYFVPSKEKKQEAKKTPVKKEPEKKVVTTNIYTSPGTTVVVQDRKGNKRDMRDVDEYNRRYDAKDNEFAMEDDTLYVKEKAVSDPDGEWVNGFNGSQDDYEYAERIIRFRNPRFAVSISSPLYWDIVYGTNSWDWNVYTDGFYAYAFPTFTNRLWWDWRYNSYGSGWGWGWGWSSPYYAWGGYYPGYWGGYWGGYWGGWYGGGYWGHHHHYHPGWGGGGSWAGRYNTYTRRGSSAVRSSYGNSSTVRRYSSGAVRSNSGSSVRSSATSSYNRGESSARRVIGTRVVGERPGSTTRTDASSSRRSTYTRPSSTRSSSSYEGTRGGSTTTGSPSYSEGGRRASTRSSSTYTRGSSTAPSRSYNESTTRRSYNSTPSRSSSSSTRSYSSPSGSSSRSYSTGGGGGSSRSSGGGGGSSRGRR,not soluble
9,MLRAASNGLRNTVAARSVSLSAANHSDAKRSDIAQYKVVDHAYDAVVVGAGGAGLRAAMGLAEGGLKTAVITKLFPTRSHTVAAQGGINAALGNMNPDNWRWHFYDTVKGSDWLGDQDAIHYMTREAERAVIELENYGMPFSRTTDGKIYQRAFGGQSNDFGRGGQAHRTCCVADRTGHSLLHTLYGASLQYNCNYFVEYFALDLIMENGVCVGVIAMDLEDGTIHRFRSKNTVLATGGYGRAFFSCTSAHTCTGDGTALTARAGINNSDMEFVQFHPTGIYGAGCLITEGSRGEGGYLVNSAGERFMERYAPNAKDLASRDVVSRSMTVEIMEGRGVGPDKDHIYLQLHHLPAEQLQQRLPGISETAMIFAGVDVTKEPIPVIPTVHYNMGGVPTNYKGQVLNYTPKKGDEVVPGLYAAGECGAHSVHGANRLGANSLLDLVIFGRACAIDILKNTSAGVGVPELPKNAGEASVANIDKLRHNKGDISTAELRLTMQKSMQNHAAVFRRGDILKEGVKVLSKLYKDQAHLNVADKGLVWNSDLIETLELQNLLINATQTIVAAENREESRGAHARDDFPDRLDELDYSKPLEGQTKKELKDHWRKHSIIRSNIETGEVSLDYRPVIDTTLDKSETDWVPPKVRSY,not soluble
10,MPPCYPTMTVDQTTGAVTNQTEISWHSINWAKANREVKRLQVRIAKAVKEGRWGKVKALQWLLTHSFYGKALAVKRVTDNSGSKTPGVDGITWSTQEQKTQAIKSLRRRGYKPQPLRRVYIPKANGKQRPLGIPTMRDRAMQALYALALEPVAETTADRNSYGFRRGRSTADAAGQCFITLARADSATYVPDADISGCFDNISHEWLLANIPLDKEILRKWLKSGFVWKQQLFPTHAGTPQGGVISPILANMALDGMEELLNEALQKSQSPSHLEHHHHHH,not soluble
11,MQEGDEELYFHFKFPGTKTYIDPETYEDPNRAVHQFAKELDASCIKIERVIGAGEFGEVCSGRLKLPGKRDVAVAIKTLKVGYTEKQRRDFLCEASIMGQFDHPNVVHLEGVVTRGKPVMIVIEFMENGALDAFLRKHDGQFTVIQLVGMLRGIAAGMRYLADMGYVHRDLAARNILVNSNLVCKVSDFGLSRVIEDDPEAVYTTTGGKIPVRWTAPEAIQYRKFTSASDVWSYGIVMWEVMSYGERPYWDMSNQDVIKAIEEGYRLPAPMDCPAGLHQLMLDCWQKERAERPKFEQIVGILDKMIRNPNSAHHHHHH,soluble
12,MRKALITGASRGIGRAIALRLAEDGFALAIHYGQNREKAEEVAEEARRRGSPLVAVLGANLLEAEAATALVHQAAEVLGGLDTLVNNAGITRDTLLVRMKDEDWEAVLEANLSAVFRTTREAVKLMMKARFGRIVNITSVVGILGNPGQANYVASKAGLIGFTRAVAKEYAQRGITVNAVAPGFIETEMTERLPQEVKEAYLKQIPAGRFGRPEEVAEAVAFLVSEKAGYITGQTLCVDGGLTPH,soluble
13,MRKTINCFIPYRESTAAEQTIHALKESSIVNKIYLLNIEPNKTLSTPEGCEILPVDSLTSSKTMKMIAEKADTPYILLYTKTSALELAYKALERMTDFLQDRECGMVYADHHEWKNGEKKKHPVNDYQPGSVRDDFDFGPLLIFNRTEFILASLQMTEEREYAALYELRLLLTLHSHLVHINEYLYTETESDNRLSGEKQFDYVNPRNREVQIEMEEAFTRYLKSINALLEPICVETDVKKGNFEYEASVIIPVRNRARTIDDAIRSALAQETRFPFNIIIVDNHSTDGTTEIIGQYKDNKAVIHLQPQRTDLGIGGCWDLAINHPRCGRFAIQLDSDDLYSDTHTLQTIVDTFYKEQCAMVIGTYRMTDFRLNTIAPGVIDHSEWTKENGHNNALRINGLGAPRAFFTPILRETGVPNVSYGEDYALGLIFSRQYKIGRIYDVLYLCRRWEGNSDAALSIEQTNANNHYKDSLRTRELGIRKKYTEELKNRNEIKRFIDSQLACWPLAHHNHEALQTIQTKELSINGYTFVVQCNAQRAVSTTAKVDKDSIQARPCFLCKENQPKEQKALETITANRICVNPYPILPDHLTIAHKDHIPQLMDENIFSYDDVRAFVQKYPDYALFYNGAHCGASAPDHLHLQGVRKTDVPIIPNVQQLITHAQTIDIRSMYFPYLEEEEDYPLECSRIYLNTKDYPCPLVILSSNTHYDDSLLYSALAAFPPDEDGQEAKFNLLLWKEGHLYYTVVFPRSKHRPDCYFAEGSEQMLISPGALDMAGVIVTTRQEDFDKITEEKVASIIKEVGITVEEAEKIPGRYFDEKAKR,not soluble
14,MSGEVWRWNKQAEMNSIRDCLKHCNSIAIDTEFPGCLKETPMDASDEIRYRDMKFNVDNTHLIQLGLTLFGKGITKTWEINLSDFNESKSLKNDKSIAFLKNNGLDLDKIREEGIGIEEFFMEFSQILNEKHGKMRWVTFQGSYDKAYLLKGLTRKPLPETSKEFDETVQQLLGRFVYDVKKMAGLCSGLSSRFGLQRIADVLQMRRVGKAHHAGSDSELTARVFTKLIFDLVNSRKESTGRRADDQQYQLEQQQHQQQLMMTRCYIPIPVQGRNYVL,soluble
15,MSLHLGHSLEAMAKEAESKGKIYEKILRALKAGESKGGDRRGKQSAAIIVVKTVDKSEKEIDPLIVGKYVDLRVDDSQDPLKDLERLLDLWVATFIEEEMVNVKDYENQIRQALNKWGYNDLRTWVEMNNLEGKYTGDKIGKTVLKILLSKEEGHHHHHH,soluble
16,MSLKSRHDKAINGAKISASSILENARKESETLKKEALLEAKEENQKYRSEIESELKESRLELKSQENRLIQREQTLDRKDDSLEKREGSLEEKEEKLGARQQLIDEREKEVENLINQQHQELERIASLSKEEAKSIIMKSTEEELNHELTLMVKESEQRAKEESDRKAKNLLSLAIQRCAADSVSETTVSVVTLPNDEMKGRIIGREGRNIRTLETLTGIDLIIDDTPEAVVLSGFDPIRREIARMTLEKLIQDGRIHPARIEEMVEKSRKEMDERIREYGEQAAFEVGAHTLHPDLIKILGRLRFRTSYGQNVLNHSIEVAKLAGVLAAELGEDVQLAKRAGLLHDIGKALDHEIEGSHVEIGAELAAKYKENSVVINAIASHHGDVEATSVISVLVAAADALSAARPGARSESLENYIRRLENLENISNSFEGVDSSFAVQAGREVRVMVKPEEISDLESVRLVRDIRKKIEDDLDYPGHIKVTVIRETRAVDYAKEGHHHHHH,soluble
17,MSLSPQRDARLPVTVLSGFLGAGKTTLLNRILHNRDGLRVAVIVNDMSEVNIDAQLVREGGAALRRTEETLVEFSNGCICCTLRDDLLQEVRRLAEQGRYDYLLIESTGIAEPMPVAATFAVRDADGFSLSDIARLDTMVTVVDGSRFLEDFGSAATLADLGQQAGPDDTRGLVQLLGEQVEFADVLVISKCDRIDAQQLQRLRAVLRALNRDAAIVDAAHGEVPLQQLLDTGRFDFTRAQLAPGWMQELRGQHTPETEEYGISSFVYRARRPFHPQRFARMVHSGLPQVIRSKGFFWLASRMDWVGELSSVGGATQTSAAGFWFAARHRVDAQAVGQPLQTSITPLPYTDIGWQRQQTQCWTAPLPQPHEVGDASEYAAMQRLWHPLWGDRRQELAVIGVDMDAPRTRAVLDACLLSDQELRQGPAQWQLLDDPFPHWARLEHHHHHH,not soluble
18,MSSLMAIRCARTQNIVTIGSLLQLRSSFPRLSSQFHFSGTLNSIPIKHLSTSAAANDYHQNPQSGSPSQHQRPYPPQSFDSQNQTNTNQRVPQSPNQWSTQHGGQIPQYGGQNPQHGGQRPPYGGQNPQQGGQMSQYGGHNPQHGGHRPQYGGQRPQYGGPGNNYQNQNVQQSNQSQYYTPQQQQQPQPPRSSNQSPNQMNEVAPPPSVEEVMRLCQRRLYKDAIELLDKGAMPDRECFVLLFESCANLKSLEHSKKVHDHFLQSKFRGDPKLNNMVISMFGECSSITDAKRVFDHMVDKDMDSWHLMMCAYSDNGMGDDALHLFEEMTKHGLKPNEETFLTVFLACATVGGIEEAFLHFDSMKNEHGISPKTEHYLGVLGVLGKCGHLVEAEQYIRDLPFEPTADFWEAMRNYARLHGDIDLEDYMEELMVDVDPSKAVINKIPTPPPKSFKETNMVTSKSRILEFRNLTFYKDEAKEMAAKKGVVYVPDTRFVLHDIDQEAKEQALLYHSERLAIAYGIICTPPRKTLTIIKNLRVCGDCHNFIKIMSKIIGRVLIVRDNKRFHHFKDGKCSCGDYW,not soluble

# Reference: the DeepSol protein solubility set
